From US20190194322A1
These are yes or no findings as the source states them, for the method shown. Some results given as binding are weak or reduced against the parent protein; the word gives no strength. For some of these results: Sequences can lack the tags named with a protein.

B1: mouse anti-human VSIG3 monoclonal antibody from clone #774213 (antibody, mouse IgG2b, kappa, V domains shown)
VH: DVQLVESGGGLVQPGGSRKLSCAASGFTFSSFGMHWVRQAPEKGLEWVAYISSGSTTIYYADTVKGRFTISRDNPKNTLFLQMTSLRSEDTAMYYCTRGSYYRYDLYYAMDYWGQGTSVTVSS
VL: DIQMTQSPSSLSASLGGKVTITCKASQDIHKYVAWYQHKPGKGPRLLIHYTSTLQPGIPSRFSGSGSGSDYSFSISNLEPADIASYYCLQYDNLLFTFGGGTKLEIKR
B2: mouse anti-human VSIG3 monoclonal antibody from clone #774221 (antibody, IgG1, V domains shown)
VH: DVQLQESGPGLVKPSQSLSLTCTVTGYSITSDYAWNWIRQFPGNKLEWMGYISYSGYAIYNPSLKSRISITRDTSKNHFFLQLNSVTTEDTATYYCARSGGSWFAYWGQGTLVTVSA
VL: DIQMTQSPASLSASVGETVTITCRASENINSYLAWYQQKQGKSPQLLVYNAKTLAEGVPSRFSGSGSGTQFSLKINSLQPEDFGSYYCQHHYGTPPTFGGGTKLEIKR

Legend:
[1] = target: Recombinant human VSIG3 Fc Chimera (human (homo sapiens)); assay: SPR (Biacore), VSIG3-Fc immobilised, antibody as analyte (FIG. 14)
VSIG3 His-fusion (human) = target: T1, VSIG3 His-fusion (human) (UniProt Q5DX21); assay: SPR (Biacore), antibody captured, VSIG3-His as analyte (FIG. 15)
T1 sequence (biotinylated (in the co-immunoprecipitation of FIG. 2), looked up): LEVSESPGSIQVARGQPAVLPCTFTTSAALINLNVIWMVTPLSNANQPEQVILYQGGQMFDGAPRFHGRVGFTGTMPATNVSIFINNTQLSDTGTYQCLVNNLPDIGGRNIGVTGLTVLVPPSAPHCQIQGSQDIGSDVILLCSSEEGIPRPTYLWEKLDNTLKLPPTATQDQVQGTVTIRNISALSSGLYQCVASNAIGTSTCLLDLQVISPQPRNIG

| Binder | binding [1] | binding (VSIG3 His-fusion (human)) |
| --- | --- | --- |
| B1 | binds | binds |
| B2 | binds | binds |
